Measurements reported in PubChem BioAssay AID1259289 (Sanger Institute, 2017).

- Screen: 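Kinases that bowel cancer cells need to survive, with or without BYL719, cetuximab, trametinib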 (primary screen)
- Cells: human LS513 colorectal cancer cells
- Reagent: siRNA pool against human genes
- Conditions: anchor drug BYL719 at 1 µM, cetuximab at 5 µg/ml or trametinib at 10 nM, or DMSO vehicle alone; exposure time not given
- Measurement: 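Survival versus non-targeting pool for each arm averaged over replicates, robust z-score in the arm with DMSO only, and synergy scores for BYL719, cetuximab or trametinib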
- Scale: robust z-score, siRNA alone (DMSO): higher = more viable cells; strongly negative means essential
- Rule for the call: 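Called essential when silencing alone under DMSO gives a robust z-score below -3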
- Meaning of the calls: active = essential (knock-down alone); inactive = not essential
This is one part, drawn at random, of 794 reagents. 16 of them (2%) were called active. 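Active marks cell loss from silencing alone; drug synergy shows only in the synergy scores, not the calls.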 Not all columns of the deposit are shown. The record does not give: the amount of reagent, the time to read-out.

CAMK2D (calcium/calmodulin dependent protein kinase II delta): robust z-score, siRNA alone (DMSO) = 0.561; activity call = inactive
MAP3K13 (mitogen-activated protein kinase kinase kinase 13): robust z-score, siRNA alone (DMSO) = -0.473; activity call = inactive
IRAK3 (interleukin 1 receptor associated kinase 3): robust z-score, siRNA alone (DMSO) = -1.88; activity call = inactive
INSRR (insulin receptor related receptor): robust z-score, siRNA alone (DMSO) = -0.983; activity call = inactive
BPTF (bromodomain PHD finger transcription factor): robust z-score, siRNA alone (DMSO) = -0.718; activity call = inactive
STKLD1 (serine/threonine kinase like domain containing 1): robust z-score, siRNA alone (DMSO) = -0.756; activity call = inactive
TNNI3K (TNNI3 interacting kinase): robust z-score, siRNA alone (DMSO) = 0.561; activity call = inactive
PAK1 (p21 (RAC1) activated kinase 1): robust z-score, siRNA alone (DMSO) = -1.25; activity call = inactive
PRKAG3 (protein kinase AMP-activated non-catalytic subunit gamma 3): robust z-score, siRNA alone (DMSO) = -2.53; activity call = inactive
TJP2 (tight junction protein 2): robust z-score, siRNA alone (DMSO) = 0.561; activity call = inactive
PBK (PDZ binding kinase): robust z-score, siRNA alone (DMSO) = 0.561; activity call = inactive
PTK2B (protein tyrosine kinase 2 beta): robust z-score, siRNA alone (DMSO) = 0.561; activity call = inactive
RIOK2 (RIO kinase 2): robust z-score, siRNA alone (DMSO) = -0.681; activity call = inactive
SYNCRIP (synaptotagmin binding cytoplasmic RNA interacting protein): robust z-score, siRNA alone (DMSO) = -1.95; activity call = inactive
PIM1 (Pim-1 proto-oncogene, serine/threonine kinase): robust z-score, siRNA alone (DMSO) = -0.593; activity call = inactive
PANK1 (pantothenate kinase 1): robust z-score, siRNA alone (DMSO) = 0.561; activity call = inactive
DAPK1 (death associated protein kinase 1): robust z-score, siRNA alone (DMSO) = -1.54; activity call = inactive
MAP3K2 (mitogen-activated protein kinase kinase kinase 2): robust z-score, siRNA alone (DMSO) = 0.221; activity call = inactive
DGKI (diacylglycerol kinase iota): robust z-score, siRNA alone (DMSO) = 0.561; activity call = inactive
TWF2 (twinfilin actin binding protein 2): robust z-score, siRNA alone (DMSO) = 0.561; activity call = inactive
BRWD1 (bromodomain and WD repeat domain containing 1): robust z-score, siRNA alone (DMSO) = 0.561; activity call = inactive
PLK1 (polo like kinase 1): robust z-score, siRNA alone (DMSO) = -3.65; activity call = active
EPHB6 (EPH receptor B6): robust z-score, siRNA alone (DMSO) = 0.561; activity call = inactive
SGK1 (serum/glucocorticoid regulated kinase 1): robust z-score, siRNA alone (DMSO) = 0.561; activity call = inactive
MECOM (MDS1 and EVI1 complex locus): robust z-score, siRNA alone (DMSO) = 0.561; activity call = inactive
CNOT1 (CCR4-NOT transcription complex subunit 1): robust z-score, siRNA alone (DMSO) = -0.274; activity call = inactive
STK11 (serine/threonine kinase 11): robust z-score, siRNA alone (DMSO) = 0.561; activity call = inactive
NEK8 (NIMA related kinase 8): robust z-score, siRNA alone (DMSO) = -1.05; activity call = inactive
ABL1 (ABL proto-oncogene 1, non-receptor tyrosine kinase): robust z-score, siRNA alone (DMSO) = 0.561; activity call = inactive
ACSL6 (acyl-CoA synthetase long chain family member 6): robust z-score, siRNA alone (DMSO) = 0.561; activity call = inactive
GUCY2C (guanylate cyclase 2C): robust z-score, siRNA alone (DMSO) = 0.561; activity call = inactive
ETNK1 (ethanolamine kinase 1): robust z-score, siRNA alone (DMSO) = 0.561; activity call = inactive

Active calls (from the list above):
PLK1 (polo like kinase 1): robust z-score, siRNA alone (DMSO) = -3.65; activity call = active
